These results are taken from patent US12156871B2, “Substituted azacycles as muscarinic M1 receptor positive allosteric modulators” (SUVEN LIFE SCIENCES LIMITED, priority 2017, dated 2024).

The structures appear in SMILES notation.

This assay deals with hippocampal theta oscillations. The assay can be described thus: Theta modulation in dorsal hippocampus of anesthetized rats in combination with donepezil. Type of assay: in vivo, Male Wistar rats. The following applies: donepezil alone, 0.3 mg/kg, i.v., anesthetized rat. Here is the method:
Effect of M1 PAM compound (Example 38) in combination with donepezil on brain activity as a pharmacodynamic endpoint is evaluated.
Male Wistar rats (240-320 g) were anesthetized by intraperitoneal administration of urethane (1.2 to 1.5 g/kg) for implantation of a catheter in the left femoral vein. The animal was placed in a stereotaxic frame for implanting an electrode (stainless steel wire, Plastics One) into the dorsal hippocampus (AP: 3.8 mm; ML: +2.2 mm; DV: 2.5 mm; Paxinos and Watson, 2004). Bipolar stimulating electrode (untwisted stainless steel wires, separated by 0.75-1.0 mm at their tips, Plastics One) was implanted in the Nucleus Pontis Oralis (NPO; AP: 7.8 mm; ML: 1.8 mm; DV: 6.0 mm; Paxinos and Watson, 2004). Additionally one electrode was implanted into the cerebellum which served as a reference. Hippocampal θ rhythm was evoked via a 6-s electrical stimulation train (20-160 μA, 0.3-ms pulse duration, 250 Hz) delivered to the NPO at a rate of 0.01 trains/s with a Grass S88 stimulator and PSIU6 stimulus isolation unit (Grass Medical Instruments, Quincy, MA). EEG was recorded at a rate of 1000 Hz using Ponemah (Version 5.2) software and stored for off-line analysis using NeuroScore (Version 3.0). […]
Power in the θ rhythm frequency in the stimulation period during the 30-min baseline period was calculated and the % changes in these measures post treatment were calculated. […]

Take `COc1cc2c(cc1OC)C(=O)C(CC1CCN(Cc3ccccc3)CC1)C2` (stereo not shown) [donepezil, reference compound]: the “hippocampal θ power” value is on record as “moderate increase”.
